Measurements published in article PMC1955682.
These are yes or no findings as the source states them, for the method shown. Binding seen in cells or lysates may run through a third protein. Binding can be weak; no strength is given.

Sequences of proteins named here, by UniProt entry; tags and fusion partners are left off. A change or cut given only in a name is not applied to a line headed by its entry.
UniProt Q9VWX6: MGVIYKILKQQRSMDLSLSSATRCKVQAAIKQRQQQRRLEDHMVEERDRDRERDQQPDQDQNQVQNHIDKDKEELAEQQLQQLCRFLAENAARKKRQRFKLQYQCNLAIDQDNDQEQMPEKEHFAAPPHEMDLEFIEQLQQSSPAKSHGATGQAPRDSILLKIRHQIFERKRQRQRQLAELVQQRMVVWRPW
UniProt P16371: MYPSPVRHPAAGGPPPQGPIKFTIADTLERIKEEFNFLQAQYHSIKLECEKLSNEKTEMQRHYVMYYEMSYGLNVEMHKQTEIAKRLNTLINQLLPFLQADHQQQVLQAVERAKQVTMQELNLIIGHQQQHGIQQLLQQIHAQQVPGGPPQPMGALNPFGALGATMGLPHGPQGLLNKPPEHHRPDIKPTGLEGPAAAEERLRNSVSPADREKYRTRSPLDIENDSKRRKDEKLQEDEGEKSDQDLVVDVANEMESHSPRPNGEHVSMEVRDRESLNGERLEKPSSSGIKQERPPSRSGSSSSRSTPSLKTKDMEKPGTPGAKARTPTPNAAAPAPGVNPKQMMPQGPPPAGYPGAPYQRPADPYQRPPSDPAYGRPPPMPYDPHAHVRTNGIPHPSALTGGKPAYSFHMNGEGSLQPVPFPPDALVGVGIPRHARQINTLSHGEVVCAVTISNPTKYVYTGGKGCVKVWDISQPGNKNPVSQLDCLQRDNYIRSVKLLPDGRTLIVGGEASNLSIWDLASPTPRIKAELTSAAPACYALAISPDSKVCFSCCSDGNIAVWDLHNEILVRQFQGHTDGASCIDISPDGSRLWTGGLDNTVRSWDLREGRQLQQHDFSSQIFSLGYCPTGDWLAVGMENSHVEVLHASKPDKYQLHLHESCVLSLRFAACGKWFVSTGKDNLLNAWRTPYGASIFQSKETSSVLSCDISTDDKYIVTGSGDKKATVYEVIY

Biological target: GST-Him (Drosophila) (UniProt Q9VWX6)
Assay: pull-down; GST fusion proteins (GST-Him, GST-HimΔWRPW, GST alone) as baits, radiolabelled Groucho as input; autoradiograph of a protein gel

Groucho (from UniProt P16371 1-730)
binding: binds
